Measured values published in patent publication US8163766B2, “Beta-secretase modulators and methods of use” (Amgen Inc., priority 2005, dated 2012).
Some entries share one result that the patent states for a list of compounds.

The chains behind the UniProt entries cited, without tags or fusion partners. Residues count along the entry.
UniProt P56817, 46-501, species assumed: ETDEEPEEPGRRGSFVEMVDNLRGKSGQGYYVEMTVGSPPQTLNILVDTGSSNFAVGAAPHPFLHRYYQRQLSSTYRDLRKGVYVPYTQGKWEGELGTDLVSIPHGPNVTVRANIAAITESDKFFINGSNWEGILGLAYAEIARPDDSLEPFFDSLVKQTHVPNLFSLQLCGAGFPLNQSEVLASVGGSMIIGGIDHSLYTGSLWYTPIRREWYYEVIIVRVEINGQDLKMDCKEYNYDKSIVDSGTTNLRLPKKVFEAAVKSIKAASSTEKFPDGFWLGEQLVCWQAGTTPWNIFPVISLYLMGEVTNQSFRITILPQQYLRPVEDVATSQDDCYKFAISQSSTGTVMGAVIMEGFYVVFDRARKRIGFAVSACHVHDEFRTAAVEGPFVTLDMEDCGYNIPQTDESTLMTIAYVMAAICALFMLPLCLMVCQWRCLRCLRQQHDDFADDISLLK

Target: BACE (Homo sapiens, UniProt P56817)
Test: In Vitro Enzymatic BACE FRET (Fluorescence Resonance Energy Transfer) Assay
Type: biochemical
Conditions: Enzyme 0.2 nM pre-incubated one hour with inhibitor, FRET substrate 50 nM, acetate pH 4.2

IC50, ≤ 5 µM:
O=C(N[C@@H](Cc1ccccc1)[C@H](O)CN[C@H]1CC2(CCC2)Nc2ccc(Br)cc21)c1cc(-c2ccccn2)c(=O)n(C2CCCC2)c1 [Example 471, N-((1S,2R)-3-(((4′S)-6′-bromo-3′,4′-dihydro-1′H-spiro[cyclobutane-1,2′-quinolin]-4′-yl)amino)-2-hydroxy-1-(phenylmethyl)propyl)-1′-cyclopentyl-2′-oxo-1′,2′-dihydro-2,3′-bipyridine-5′-carboxamide]
O=C(N[C@@H](Cc1ccc(F)cc1)[C@H](O)CN[C@H]1CC2(CCC2)Oc2cc(F)c(-n3cccn3)cc21)C1CC1 [Example 472, N-((1S,2R)-1-((4-fluorophenyl)methyl)-3-(((4S)-7-fluoro-6-(1H-pyrazol-1-yl)-3,4-dihydrospiro[chromene-2,1′-cyclobutan]-4-yl)amino)-2-hydroxypropyl)cyclopropanecarboxamide]
CCc1ccc2c(c1)[C@@H](NCC(=O)[C@H](Cc1ccccc1)NC(=O)[C@@H]1CN(C(=O)N3CCCCC3)CCO1)CC(C)(C)O2 [Example 475, (2S)-N-((1S)-3-(((4S)-6-ethyl-2,2-dimethyl-3,4-dihydro-2H-chromen-4-yl)amino)-2-oxo-1-(phenylmethyl)propyl)-4-(1-piperidinylcarbonyl)-2-morpholinecarboxamide]
O=C(N[C@@H](Cc1ccccc1)[C@H](O)CN[C@H]1CC2(CCC2)Oc2ccccc21)c1cc(-c2ccccn2)c(=O)n(C2CCCC2)c1 [Example 476, 1′-cyclopentyl-N-((1S,2R)-3-((4S)-3,4-dihydrospiro[chromene-2,1′-cyclobutan]-4-ylamino)-2-hydroxy-1-(phenylmethyl)propyl)-2′-oxo-1′,2′-dihydro-2,3′-bipyridine-5′-carboxamide]
CC#CC[C@H](NC(=O)c1cc(-c2ccccn2)c(=O)n(C2CCCC2)c1)[C@H](O)CN[C@H]1CC2(CCC2)Oc2ccc(CC)cc21 [Example 477, 1′-cyclopentyl-N-((1S)-1-((1R)-2-(((4S)-6-ethyl-3,4-dihydrospiro[chromene-2,1′-cyclobutan]-4-yl)amino)-1-hydroxyethyl)-3-pentyn-1-yl)-2′-oxo-1′,2′-dihydro-2,3′-bipyridine-5′-carboxamide]
C[C@@H](N[C@H]1CC(C)(C)Oc2ccc(Br)cc21)[C@H](O)[C@H](Cc1ccccc1)NC(=O)c1cc(-c2ccccn2)c(=O)n(C2CCCC2)c1 [Example 480, N-((1S,2S,3R)-3-(((4S)-6-bromo-2,2-dimethyl-3,4-dihydro-2H-chromen-4-yl)amino)-2-hydroxy-1-(phenylmethyl)butyl)-1′-cyclopentyl-2′-oxo-1′,2′-dihydro-2,3′-bipyridine-5′-carboxamide]
CC1(C)C[C@@H](NC[C@@H](O)[C@H](Cc2ccccc2)NC(=O)c2cc(-c3ccccn3)c(=O)n(C3CCCC3)c2)c2cc(Br)ccc2N1 [Example 481, N-((1S,2R)-3-(((4R)-6-bromo-2,2-dimethyl-1,2,3,4-tetrahydro-4-quinolinyl)amino)-2-hydroxy-1-(phenylmethyl)propyl)-1′-cyclopentyl-2′-oxo-1′,2′-dihydro-2,3′-bipyridine-5′-carboxamide]
CC1(C)C[C@H](NC[C@@H](O)[C@H](Cc2ccccc2)NC(=O)c2cc(-c3ccccn3)c(=O)n(C3CCCC3)c2)c2cc(Br)ccc2N1 [Example 482, N-((1S,2R)-3-(((4S)-6-bromo-2,2-dimethyl-1,2,3,4-tetrahydro-4-quinolinyl)amino)-2-hydroxy-1-(phenylmethyl)propyl)-1′-cyclopentyl-2′-oxo-1′,2′-dihydro-2,3′-bipyridine-5′-carboxamide]
CCCOC[C@H](NC(=O)c1cc(-c2ccccn2)c(=O)n(C2CCCC2)c1)[C@H](O)CN[C@H]1CC2(CCC2)Oc2ccc(CC)cc21 [Example 483, 1′-cyclopentyl-N-((1S,2R)-3-(((4S)-6-ethyl-3,4-dihydrospiro[chromene-2,1′-cyclobutan]-4-yl)amino)-2-hydroxy-1-((propyloxy)methyl)propyl)-2′-oxo-1′,2′-dihydro-2,3′-bipyridine-5′-carboxamide]
CCc1ccc2c(c1)[C@@H](NC[C@@H](O)[C@H](Cc1ccccc1)NC(=O)[C@H]1CN(C(=O)N3CCCCC3)CCO1)CC(C)(C)O2 [Example 484, (2R)-N-((1S,2R)-3-(((4S)-6-ethyl-2,2-dimethyl-3,4-dihydro-2H-chromen-4-yl)amino)-2-hydroxy-1-(phenylmethyl)propyl)-4-(1-piperidinylcarbonyl)-2-morpholinecarboxamide]
CCc1ccc2c(c1)[C@@H](NC[C@@H](O)[C@H](Cc1ccccc1)NC(=O)[C@@H]1CN(C(=O)N3CCCCC3)CCO1)CC(C)(C)O2 [Example 485, (2S)-N-((1S,2R)-3-(((4S)-6-ethyl-2,2-dimethyl-3,4-dihydro-2H-chromen-4-yl)amino)-2-hydroxy-1-(phenylmethyl)propyl)-4-(1-piperidinylcarbonyl)-2-morpholinecarboxamide]
CC(C)(C)Cc1ccc2c(c1)[C@H](NC[C@@H](O)[C@H](Cc1ccccc1)NC(=O)c1cc(-c3ccccn3)c(=O)n(C3CCCC3)c1)CC(C)(C)N2 [Example 488, 1′-cyclopentyl-N-((1S,2R)-3-(((4R)-6-(2,2-dimethylpropyl)-2,2-dimethyl-1,2,3,4-tetrahydro-4-quinolinyl)amino)-2-hydroxy-1-(phenylmethyl)propyl)-2′-oxo-1′,2′-dihydro-2,3′-bipyridine-5′-carboxamide]
CC(C)(C)Cc1ccc2c(c1)[C@@H](NC[C@@H](O)[C@H](Cc1ccccc1)NC(=O)c1cc(-c3ccccn3)c(=O)n(C3CCCC3)c1)CC(C)(C)N2 [Example 489, 1′-cyclopentyl-N-((1S,2R)-3-(((4S)-6-(2,2-dimethylpropyl)-2,2-dimethyl-1,2,3,4-tetrahydro-4-quinolinyl)amino)-2-hydroxy-1-(phenylmethyl)propyl)-2′-oxo-1′,2′-dihydro-2,3′-bipyridine-5′-carboxamide]
Cc1cccc(C(=O)N2CCO[C@H](C(=O)N[C@@H](Cc3cccc(C#N)c3)[C@H](O)CN[C@H]3CC4(CCC4)Cc4ncc(C)cc43)C2)c1 [Example 490, (2S)-N-((1S,2R)-1-((3-cyanophenyl)methyl)-2-hydroxy-3-(((5′S)-3′-methyl-5′,8′-dihydro-6′H-spiro[cyclobutane-1,7′-quinolin]-5′-yl)amino)propyl)-4-((3-methylphenyl)carbonyl)-2-morpholinecarboxamide]
Cc1cccc(C(=O)N2CCO[C@@H](C(=O)N[C@@H](Cc3cccc(C#N)c3)[C@H](O)CN[C@H]3CC4(CCC4)Cc4ncc(C)cc43)C2)c1 [Example 491, (2R)-N-((1S,2R)-1-((3-cyanophenyl)methyl)-2-hydroxy-3-(((5′S)-3′-methyl-5′,8′-dihydro-6′H-spiro[cyclobutane-1,7′-quinolin]-5′-yl)amino)propyl)-4-((3-methylphenyl)carbonyl)-2-morpholinecarboxamide]
Cc1cccc(C(=O)N2CCO[C@H](C(=O)N[C@@H](Cc3cc(F)cc(F)c3)[C@H](O)CN[C@H]3CC4(CCC4)Cc4ncc(C)cc43)C2)c1 [Example 492, (2S)-N-((1S,2R)-1-((3,5-difluorophenyl)methyl)-2-hydroxy-3-(((5′S)-3′-methyl-5′,8′-dihydro-6′H-spiro[cyclobutane-1,7′-quinolin]-5′-yl)amino)propyl)-4-((3-methylphenyl)carbonyl)-2-morpholinecarboxamide]
Cc1cccc(C(=O)N2CCO[C@H](C(=O)N[C@@H](Cc3cccc(C#N)c3)[C@H](O)CN[C@H]3CC(C)(C)Cc4ncc(C)cc43)C2)c1 [Example 496, (2S)-N-((1S,2R)-1-((3-cyanophenyl)methyl)-2-hydroxy-3-(((5S)-3,7,7-trimethyl-5,6,7,8-tetrahydro-5-quinolinyl)amino)propyl)-4-((3-methylphenyl)carbonyl)-2-morpholinecarboxamide]
Cc1cccc(C(=O)N2CCO[C@@H](C(=O)N[C@@H](Cc3cccc(C#N)c3)[C@H](O)CN[C@H]3CC(C)(C)Cc4ncc(C)cc43)C2)c1 [Example 497, (2R)-N-((1S,2R)-1-((3-cyanophenyl)methyl)-2-hydroxy-3-(((5S)-3,7,7-trimethyl-5,6,7,8-tetrahydro-5-quinolinyl)amino)propyl)-4-((3-methylphenyl)carbonyl)-2-morpholinecarboxamide]
Cc1cccc(C(=O)N2CCO[C@H](C(=O)N[C@@H](Cc3ccccc3)[C@H](O)CN[C@H]3CC(C)(C)Cc4ncc(C)cc43)C2)c1 [Example 498, (2S)-N-((1S,2R)-2-hydroxy-1-(phenylmethyl)-3-(((5S)-3,7,7-trimethyl-5,6,7,8-tetrahydro-5-quino-linyl)amino)propyl)-4-((3-methylphenyl)carbonyl)-2-morpholinecarboxamide]
Cc1cccc(C(=O)N2CCO[C@@H](C(=O)N[C@@H](Cc3ccccc3)[C@H](O)CN[C@H]3CC(C)(C)Cc4ncc(C)cc43)C2)c1 [Example 499, (2R)-N-((1S,2R)-2-hydroxy-1-(phenylmethyl)-3-(((5S)-3,7,7-trimethyl-5,6,7,8-tetrahydro-5-quinolinyl)amino)propyl)-4-((3-methylphenyl)carbonyl)-2-morpholinecarboxamide]
CCc1ccc2c(c1)[C@@H](NC[C@@H](O)[C@H](Cc1csc(C)n1)NC(=O)c1cc(-c3ccccn3)c(=O)n(C3CCCC3)c1)CC1(CCC1)O2 [Example 500, 1′-cyclopentyl-N-((1S,2R)-3-(((4S)-6-ethyl-3,4-dihydrospiro[chromene-2,1′-cyclobutan]-4-yl)amino)-2-hydroxy-1-((2-methyl-1,3-thiazol-4-yl)methyl)propyl)-2′-oxo-1′,2′-dihydro-2,3′-bipyridine-5′-carboxamide]
CC(C)n1cc(C(=O)N[C@@H](Cc2ccccc2)[C@H](O)CN[C@H]2CC(C)(C)Cc3sc(CC(C)(C)C)cc32)cc(-c2ccccn2)c1=O [Example 501, N-((1S,2R)-3-(((4S)-2-(2,2-dimethylpropyl)-6,6-dimethyl-4,5,6,7-tetrahydro-1-benzothien-4-yl)amino)-2-hydroxy-1-(phenylmethyl)propyl)-1′-(1-methylethyl)-2′-oxo-1′,2′-dihydro-2,3′-bipyridine-5′-carboxamide]
